# Source: article PMC9880260, “Identification of compounds with activity against Trypanosoma cruzi within a collection of synthetic nucleoside analogs” (Frontiers in Cellular and Infection Microbiology, 2023)
# Test system: T. cruzi amastigotes
# Assay: Amastigotes growth inhibition assay (infected Vero cells, 72 h, CPRG)
# Settings: Vero cells TC50 / anti-amastigote IC50
row,Compound,SI Anti-amastigote assay
1,"O=C(Cn1ccnc1[N+](=O)[O-])NCc1ccccc1 [BNZ, benznidazole, reference compound]",133.67
2,c1ccc(CNc2ncnc3c2nc(-c2ccccc2)n3Cc2ccccc2)cc1 [Compound L4-0c],127.26
3,c1ccc(CCNc2ncnc3c2nc(-c2ccccc2)n3CCc2ccccc2)cc1 [Compound L4-1c],255.76
4,COc1ccc(CNc2ncnc3c2nc(-c2ccccc2)n3Cc2ccc(OC)cc2)cc1 [Compound L4-2c],"> 1,000"
5,Clc1ccc(CNc2ncnc3c2ncn3Cc2ccc(Cl)cc2)cc1 [Compound L4-4a],116.45
6,Clc1ccc(CNc2ncnc3c2nc(-c2ccccc2)n3Cc2ccc(Cl)cc2)cc1 [Compound L4-4c],44.70
7,Brc1ccc(CCNc2ncnc3c2nc(-c2ccccc2)n3CCc2ccc(Br)cc2)cc1 [Compound L4-7c],121.08
8,"Clc1cccc(CNc2ncnc3c2nc(-c2ccccc2)n3Cc2cccc(Cl)c2)c1 [Compound L4-8c, N,9-bis(3-chlorobenzyl)-8-phenyl-9H-purin-6-amine]",427.33
9,Cc1nc2c(NCc3ccccc3Cl)ncnc2n1Cc1ccccc1Cl [Compound L4-9b],126.59
